The values below come from PubChem BioAssay AID1347423 (Functional Genomics Laboratory (NCATS/FGL), 2020).

Screen size: about 52,000 sequences; about 210 (0.4%) were called active.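 Rule for the calls: active = gene whose silencing raises cell survival under the drug, median off-target-corrected z-score across its silencing RNAs 2 or more; inactive = the rest.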 The list shows a part of the results.

A short description of this test: Resistance to Poly (ADP-Ribose) Polymerase inhibitor: Gene Identification via Genome-wide siRNA Screen. The note with it: mouse BRCA2 R2336H ES cells, olaparib, CellTiter-Glo viability; stronger effect = higher value. The method in brief: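 Genome-wide siRNA screen (3 siRNAs/gene, 20 nM) in mouse ES cells carrying hypomorphic BRCA2 R2336H; olaparib 500 nM added 48 h post-transfection, CellTiter-Glo viability 72 h later. Normalized to plate-median negative control; MAD z-scores, gene median, seed-adjusted.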
CCCUCGAUCCUUUUCACCUTT against Gja4: the z-score is inactive: 1.09.
For the sequence GGAUUCGGACUUCAUAAUCTT against Dpp10, the z-score is inactive: 0.814.
For the sequence GGACAUCUUUUACCAGGAGTT against Mrps23, the z-score was inactive: 0.182.
Next, GGUUCACCUGCAUCAUUGGTT against Smc1l2: inactive: -0.362; “GGCAUUCAAAUCAAGAAGATT against 1700123O20Rik”: inactive: -0.468; “GGGAAUGUUGACUUGUGUUTT against 2700050P07Rik”: inactive: -2.24.
Take GGAGUUCUAUGUGUCACCATT against Dnajc5b: the z-score is inactive: -0.358.
Regarding GUGUUCAACUCCUGAGUAGTT against Olfr1275, the z-score is inactive: 0.337.
Consider GGAGAAAUGCUUUUUGUUUTT against Scarb1, for which the z-score is inactive: -1.45.
Next, “GGUACCAUCACAGUGCGUCTT against D830007E07Rik”: inactive: 0.0616.
Next, GCCCUUACAGUUACCCUUGTT against BC008184: inactive: -1.07; GGGAAACGCAAAGCCUUUUTT against Olfr17: inactive: -0.217; CCAAAACUAGGAAGAAACATT against Olfr716: inactive: -0.952.
With CCUUACUCGAUUAAAAGAATT against Eif3s6, the z-score is inactive: 1.11.
The same measure for “GGAGUUCACCACUAUCAAGTT against 2610039E05Rik”: inactive: 0.685; for GGAGAUCAAAAAAAGAAAGTT against Cfl2: inactive: 1.29; for GGCCCUGAAGAAAGUUAUUTT against Olfr830: inactive: 1.17.
With GGACAGCUUCCGAAACUAUTT against Aldrl6, the z-score is inactive: -0.0449.
For GGCUCUCUUAGUUGUAUCATT against Mrpl35, the z-score was inactive: -1.03.
Next, CCUUUACGAACCUUCUGUCTT against Als2cr4: inactive: 0.541.
The same measure for CGUGGUUUCAGAUUUACAATT against Magi1: inactive: -1.53.
Next, GGACAGUGACUACAAUCCATT against Znf335: inactive: 0.338; CCCAGAUCUAGACUCCGACTT against Maf1: inactive: 2.13.
In the case of “GGGAACUUUAGCUUAAAUUTT against E130115E03Rik”, the z-score was inactive: -0.963.
On to GGAAAAGCAAGUCAAUCAATT against Polk, for which the z-score was inactive: 0.522.
Consider GGCCAAGAAUUCUCUGGUCTT against Six5, for which the z-score is inactive: 0.371.
Next, “GGAUUUGAGUUACACUCAGTT against C230008H04Rik”: inactive: -0.284; GGGUGACACUCUGAACGUATT against Centd2: inactive: 0.283; CCCAUCCAAUGCUUAUGUGTT against Sgne1: inactive: 0.211.
The same measure for “GGAUUUCUUCUUAUGAUGATT against 9130227C08Rik”: inactive: 1.24.
In the case of CAGUCUACCAGAUCCUUCCTT against H2-Q8, the z-score was inactive: -1.4.
Next, “CCUAGAUUCUCCAAACUAATT against D630029K05Rik”: inactive: 0.573.
As to “GGAGGCUUUUGUAAAAUCUTT against 1700020C08Rik”, the z-score is inactive: -0.303.
On to CGUACUUCAGCGAUUUAAATT against Sec5l1, for which the z-score was inactive: -0.869.
The same measure for “GGUACUUUCGCAUCCUGCATT against 2610207P08Rik”: inactive: 0.469; for GGUCCAUCGAAGAAGUUCUTT against Cmas: inactive: 0.15; for “GGGUAGUCACUCAAUAAAUTT against 3110045G13Rik”: inactive: 0.79.
Next, GCUGGAGUAUUUACUACACTT against Ndufab1: inactive: -1.06; “GGAAAGAUGAGCUGUCCUATT against 2010005H15Rik”: inactive: -0.491; GGGAUGUUAACCAAGCUUUTT against Cntf: inactive: 0.461.
Next, GGUCUCCUUGAGUCUUCCATT against Hes3: inactive: 0.0864; UGCAGUCCAUAUCCUCAUGTT against Olfr645: inactive: -1.18; GCAGGAGUUUAACCUUCCATT against Gmppa: inactive: -1.36.
For GCAACAAACUGAGCAAAAATT against Slac2b, the z-score is inactive: 1.3.
Next, GCUUUUGCCCGAUGGAUUUTT against Ppap2b: inactive: 0.632.
As for “GCCAAUGACCCAAAUUCUATT against B430315C20Rik”, the z-score is inactive: 0.412.
Next, “GCAACUUAAAGGCAUCUCCTT against A430083B19Rik”: inactive: 0.677.
Next, GCCAAAUAUUAGCGCGAAGTT against Mglap: inactive: 0.318.
The same measure for GGUGCUGAGUUGGUCUUAUTT against Oatl1: inactive: -1.79; for CGCAGGACUAUAAACUGAATT against Ptdss2: inactive: -0.925; for GCACCUAAUGAUCACAGUGTT against Nrip3: inactive: 0.48.
With AUGGGCUGUUUAAAGUCCATT against Gm1313, the z-score was inactive: 0.00653.
For the sequence GGACUGCUGGGAGAACUUUTT against Zcchc3, the z-score was inactive: -0.897.
GGUUGAGGAAACAAGACAUTT against Fbxo42: the z-score was inactive: -0.234.
GGAAGUUUGAGUUUGAGCUTT against Fbxl21: the z-score was inactive: 0.934.
Next, GCAUAACUCCCAUCCAUAGTT against Glra2: inactive: 1.06.
Next, GGAUGAUGAGCUGAACUUUTT against Mgrn1: inactive: -1.69.
Next, “GGUUAACACUAAAUGAAGATT against C330027C09Rik”: inactive: -0.898; GGACAGAUUCGACAAAGAGTT against Olfr1365: inactive: 0.914; GGCUCUUGUGGUUUUUGUCTT against Olfr213: inactive: 0.574.
For the sequence “GGUGUAUGCAGACAAGUUATT against D2Ertd485e”, the z-score is inactive: -0.363.
As for CCGUUGAUAUCCACAUGAATT against Plod3, the z-score was inactive: 0.321.
As to CCAAAUGGGAAGAGAUUGUTT against AY534250, the z-score is inactive: 2.24.
Regarding GGAAAAAGAGAAAAAUCGCTT against Slc16a2, the z-score is inactive: 0.233.
Take GUCGAUCAACUCUAGGCUCTT against Rpl30: the z-score was inactive: 0.407.
Consider “GGAGACUUUCCAUUUGAAGTT against 2610318I01Rik”, for which the z-score was inactive: -0.0417.
Next, “CCUUUCAGGUGCAUAUCCATT against E130309F12Rik”: inactive: -1.68; “GCGGAGGAGUUUUCUUCGATT against E430021N18Rik”: inactive: 0.0566; “GCUGUAUCUGUGUCAGAACTT against 1700001O22Rik”: inactive: -1.77.
The same measure for GGAUCACCUAACGUAAUGGTT against Phlda1: inactive: 0.415; for GCAAAGCUGAUGCGAGCCUTT against Trip3: inactive: 0.192; for GGUGCAAUCAAAUGGAAUUTT against Nrf1: inactive: 0.297.
The same measure for “GGCAAGAAGUGUGAUGAACTT against 4632411B12Rik”: inactive: 0.229.
Turning to GGAUAAGAAGAUGAGGCAGTT against Mns1, the z-score was inactive: -1.33.
Next, GCCUAUCGAAAAGUCUUGGTT against Adcyap1: inactive: -0.401; GGUUGUCAAUGAAAUGUGCTT against Cpxm2: inactive: 0.306.
Next, GCGACAUAACUGCAUUCAATT against Kcnh1: inactive: 0.754; GGGCAUGUUUAACGACAUUTT against Csf2ra: inactive: -0.288.
The same measure for GCCCAUUAUGGUUAAAGAATT against Ccnb3: inactive: 0.642.
With GCUCUCACCAUCAGAGAAATT against Trpc4, the z-score was inactive: 0.69.
Regarding “GAAUGUCUGAGCAAGGAGGTT against 0710001E13Rik”, the z-score is inactive: 0.119.
Consider GCACUUUCACUGACCUAGATT against Gtf2e1, for which the z-score is inactive: -1.14.
The same measure for GCACCACUCUUUGUAAUAUTT against Olfr1046: inactive: -1.99; for GGAUGCAUUUUUUCUGGAATT against Gltscr2: inactive: -1.52.
Regarding GGAAUUUGUCUCCUGGCCUTT against Olfr1120, the z-score is inactive: 0.636.
With “GGCUAUGAAAAGAAGCCCUTT against 1200007O21Rik”, the z-score was inactive: 1.09.
As to GGUCAUUCAGAUUCUCGGATT against Itpa, the z-score was inactive: -0.832.
The same measure for “GCUACUCCUUAAUUGGCAATT against C530024P05Rik”: inactive: -0.899.
On to CGUAGCUGCCGUCAACUCUTT against Slc2a5, for which the z-score was inactive: -0.0254.
For the sequence “CCUAUAUUCCAUGGAUUCUTT against 2310031L18Rik”, the z-score is inactive: 0.266.
The same measure for GGCAAAACUGACGUAAACUTT against Gpx4: inactive: 0.382; for CCAAAGCUGAAGAUUUUGGTT against Man1b1: inactive: -0.609.
The same measure for GCUCUGAUCAUUUGACUUGTT against Ovca2: inactive: 0.309; for GCAGUUCAACACUCAACUUTT against Grpr: inactive: 0.451; for GCACCUCUGACAAGGUUCUTT against Plin: inactive: 0.114.
The same measure for GGGACUGAACUCCUGUUGGTT against Ocsp: inactive: 1.5; for GGUGCCACAGUUUACAUUATT against Dhrs1: inactive: 2.8; for GGACCGAUUCCACUUCAAUTT against Crygd: inactive: -0.753.
Regarding GGGUUACCAACGACAGUGGTT against Cldn11, the z-score was inactive: 1.05.
Next, GGUACUUGGUUUGAGUGGATT against Serpinb8: inactive: -0.385; CCAGUUCGAAGACCGUAUUTT against Tceal1: inactive: -0.558; “CGAAUGUCUCACUCAUUGCTT against D15Ertd405e”: inactive: -0.604.
With GGGACAAAGUACCUCUCCATT against MGC59495, the z-score is inactive: -0.638.
